# Laboratory results from PubChem BioAssay (EPA / NIEHS).
# Protein sequences, listed by entry. Tags and fused reporters are not part of them. Lines headed by an entry give the natural chain unless they say otherwise; changes in a name come on top.
# UniProt P10827: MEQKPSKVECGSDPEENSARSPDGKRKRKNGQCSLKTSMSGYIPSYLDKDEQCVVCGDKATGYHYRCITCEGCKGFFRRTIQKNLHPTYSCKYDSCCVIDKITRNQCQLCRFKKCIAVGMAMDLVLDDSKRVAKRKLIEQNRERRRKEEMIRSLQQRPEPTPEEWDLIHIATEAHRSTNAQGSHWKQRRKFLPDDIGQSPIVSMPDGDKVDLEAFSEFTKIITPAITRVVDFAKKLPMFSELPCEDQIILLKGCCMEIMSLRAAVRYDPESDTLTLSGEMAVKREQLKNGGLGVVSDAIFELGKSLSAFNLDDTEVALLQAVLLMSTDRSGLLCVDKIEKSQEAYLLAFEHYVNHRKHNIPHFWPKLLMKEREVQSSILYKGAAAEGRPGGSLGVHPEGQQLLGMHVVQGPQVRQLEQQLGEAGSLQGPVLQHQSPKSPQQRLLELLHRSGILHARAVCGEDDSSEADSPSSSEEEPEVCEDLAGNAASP
# The shares of active, inactive and inconclusive entries below differ from those in the screen. Potencies of inconclusive entries are doubtful fits and often do not repeat. Active and inactive are the calls of the source. How the source made its calls: active means hit-call score of the fitted dose curve at least 0.9, where 1 is the maximum; inconclusive means response in the unintended direction; inactive means score below 0.9.
# Tested on: zebrafish Peroxisome Proliferator-activated Receptor gamma (PPARg), gene 557037
# Assay: ATG_zfPPARg_XSP1: Attagene TRANS-FACTORIAL Multi-Species (XSP1) HepG2 Assay for zebrafish Peroxisome Proliferator-activated Receptor gamma (PPARg) (AID 2283801)
# In short: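 HepG2 cells transiently transfected with GAL4-UAS reporter units including a zebrafish PPARg–GAL4 chimera, dosed 24 h with 3 nM 6-alpha-fluorotestosterone present. Reporter mRNA quantified by RT-PCR, FAM labelling, HpaI digestion and capillary electrophoresis; induction versus DMSO.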
Compound,outcome,AC50
CC[C@H](c1ccc(O)cc1)[C@@H](CC)c1ccc(O)cc1,inactive,
O=C(c1ccc(O)cc1O)c1ccc(O)cc1O,,inconclusive: 1120 nM
C[C@]12CC[C@H]3C(=CCc4cc(O)ccc43)[C@@H]1CCC2=O,,inconclusive: 267 nM

# Target: Nuclear receptor subfamily 1 group I member 2 (Mus musculus) (UniProt O54915)
# Assay: ATG_mPXR_XSP1: Attagene TRANS-FACTORIAL Multi-Species (XSP1) HepG2 Assay for mouse Pregnane X Receptor (PXR) (AID 2283803)
# In short: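 Transiently transfected HepG2 cells expressing a receptor-Gal4 chimera drive a GAL4-UAS reporter; 3 nM 6-alpha-fluorotestosterone included. Reporter mRNA read 24 h post-dose by RT-PCR and capillary electrophoresis; gain of signal relative to DMSO.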
row,Compound,AC50
1,O=C(c1ccc(O)cc1O)c1ccc(O)cc1O,inconclusive: 1810 nM
2,CC1(C)C(C=C(Cl)Cl)C1C(=O)OCc1cccc(Oc2ccccc2)c1 (centres undefined),active: 1730 nM
3,C[C@]12CC[C@H]3C(=CCc4cc(O)ccc43)[C@@H]1CCC2=O,inconclusive: 255 nM

# Target: human Thyroid hormone Receptor alpha (TRa), THRA (gene 7067) (UniProt P10827)
# Assay: ATG_hTRa_XSP1: Attagene TRANS-FACTORIAL Multi-Species (XSP1) HepG2 Assay for human Thyroid hormone Receptor alpha (TRa) (AID 2283805)
# In short: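 HepG2 cells transiently transfected with GAL4-UAS reporter units expressing chimeric NR-Gal4 proteins, dosed 24 hours with 3 nM 6-alpha-fluorotestosterone present. Reporter mRNA measured by RT-PCR and capillary electrophoresis; gain of signal fitted versus DMSO.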
Compound,outcome,AC50
O=C(c1ccc(O)cc1O)c1ccc(O)cc1O,inactive,
CC1(C)C(C=C(Cl)Cl)C1C(=O)OCc1cccc(Oc2ccccc2)c1 (centres undefined),,inconclusive: 26500 nM
C[C@]12CC[C@H]3C(=CCc4cc(O)ccc43)[C@@H]1CCC2=O,inactive,
